The source of these data is patent US20110166428A1, “NOVEL METHOD FOR MEASURING INSULIN RESISTANCE” (UNIVERSITE JOSEPH FOURIER, priority 2008, published 2011).

For the data set, the system named is cardiac cells. Put plainly: Post-myocardial infarction cardiac insulin resistance index by 6DIG nuclear imaging. It counts as in vivo, rat. How it is done: FIG. 21 represents the indices of cardiac insulin resistance (K(2,1)insulin/K(2,1)Basal) (see paragraph II-2) of three groups of rats. The value of the index of cardiac insulin resistance is indicated along the y-axis. The three groups of rats are indicated by the three columns on the x-axis. The columns are considered from left to right. The measurements are carried out 7 days after the surgical operation.
The myocardial infarction experimental model utilised here is that induced by temporary in situ ligature of the left coronary artery. This protocol induces a transmural infarction, the scale of which is sufficient to lead to the development of severe cardiac insufficiency. The animals are anaesthetised by intraperitoneal injection of a 1:1 mixture of ketamine/xylazine, (50 mg/kg and 10 mg/kg respectively), and a volatile maintenance anaesthesia (isoflurane) is applied until the end of the surgical protocol. The rats are intubated and artificially ventilated (0.1 mL/100 g body weight, frequency: 65/min, gas mixture: 80% air+19.5% oxygen+0.5% isoflurane). Throughout the process, the rat is located on a heating blanket (Homeothermic Blanket System, Harvard Apparatus) making it possible to maintain its body temperature at 37° C. […]
Seven days after the thoracic surgery, each rat is anaesthetised by intra-peritoneal injection of a solution of sodium pentothal (54.7 mg/ml). […] The arterial glycaemia of the rat is measured by means of reactive strips (Accu-Chek® Performa, Laboratoires Roche). […]
After the first 20 minutes of acquisition, which constitute the test in the basal state (FIG. 1, measurement A), a bolus of insulin (Actrapid, Novo Nordisk, France, 7.5 IU/mL, 100 μL per 300 g of body weight) is injected (FIG. 1, time 2). After 5 minutes (FIG. 1, time 3), the glycaemia is measured and a bolus of about 170 μCi of 6DIG is injected. […] The blood samples are passed into a counter (Cobra II Auto-Gamma, Packard, Canberra Company) which counts the radioactivity in counts per minute, to determine the blood kinetics of the tracer. […]

Turning to `O=C[C@H](O)[C@@H](O)[C@H](O)[C@H](O)CI` [6DIG, 6-Deoxy-6-Iodo-D-Glucose], the “index of cardiac insulin resistance (K(2,1)insulin/K(2,1)Basal)” value is listed as 1.09+/−0.04 (RI rats (ischaemia reperfusion), 7 days after surgery, n=11, FIG. 21); 1.62+/−0.16 (Sham rats, 7 days after surgery without occlusion, n=13, FIG. 21); 2.46+/−0.25 (control group of rats, no surgery, n=11, FIG. 21).
